Some entries share one result that the patent states for a list of compounds. At least one structure is not confirmed: it was looked up by name or label, or the drawing left a doubt.
Tested on: UV-induced lipid peroxidation
Experiment: UV-induced lipid peroxidation of lecithin dispersions (TBARS)
Assay type: biochemical
Conditions: maximum over concentrations tested
Experimental: Test materials were added to dispersions of lecithin (a natural phospholipid) and irradiated with UVB light (11,000 μW/cm^2 at the source). After 3 hours, trichloroacetic acid and thiobarbituric acids were added and the concentration of Thiobarbituric Acid Reactive Substance (TBARS), such as malondialdehyde, was measured spectroscopically (malonaldehyde is a breakdown product generated spontaneously from oxidized lipid) at 550 nm using an UV microplate reader. For references describing this method, see Pelle et al. “Arch. Biochem. Biophys.” 283:234-40 (1990); Wang et al. “J. Ethnopharmacol.” 82:169-175 (2002).

SMILES	inhibitory activity against lipid peroxidation (up to)
O=C1O[C@H]([C@@H](O)CO)C([O-])=C1OP(=O)([O-])[O-].O=C1O[C@H]([C@@H](O)CO)C([O-])=C1OP(=O)([O-])[O-].[Mg+2].[Mg+2].[Mg+2] [magnesium ascorbyl phosphate, reference compound]	up to 49%
O=C1O[C@H]([C@@H](O)CO)C(O)=C1O [ascorbic acid, reference compound]	up to 49%

Source: patent US20120065261A1, “Creatine compositions for skin treatment” (Avicena Group, Inc., priority 2006, published 2012)
